Experiment [1] concerns the target T1, endogenous NT5DC2 (human (endogenous in PLC/RLF/5)) (UniProt Q9H857).
T1 sequence: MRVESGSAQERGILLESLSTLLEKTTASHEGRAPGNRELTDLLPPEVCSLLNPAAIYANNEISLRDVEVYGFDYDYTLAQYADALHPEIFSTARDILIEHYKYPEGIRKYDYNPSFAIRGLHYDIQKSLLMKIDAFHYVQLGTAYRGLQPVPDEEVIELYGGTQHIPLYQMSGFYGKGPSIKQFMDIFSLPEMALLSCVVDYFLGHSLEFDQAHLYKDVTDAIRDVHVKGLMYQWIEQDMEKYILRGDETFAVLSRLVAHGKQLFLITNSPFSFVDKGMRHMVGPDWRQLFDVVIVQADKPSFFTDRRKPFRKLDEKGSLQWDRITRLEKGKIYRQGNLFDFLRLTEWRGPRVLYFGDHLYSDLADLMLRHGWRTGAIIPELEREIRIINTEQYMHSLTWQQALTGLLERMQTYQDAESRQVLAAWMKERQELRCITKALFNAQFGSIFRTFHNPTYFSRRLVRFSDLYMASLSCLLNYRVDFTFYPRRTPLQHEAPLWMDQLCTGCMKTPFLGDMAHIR
In words: co-IP; endogenous proteins in PLC/RLF/5 lysate; anti-NT5DC2 or anti-EGFR antibody with protein A beads, IgG as control; western blot.

For experiment [2], the target named is T2, GFP-tagged NT5DC2 (5'-Nucleotidase domain containing 2) (human) (UniProt Q9H857).
T2 sequence: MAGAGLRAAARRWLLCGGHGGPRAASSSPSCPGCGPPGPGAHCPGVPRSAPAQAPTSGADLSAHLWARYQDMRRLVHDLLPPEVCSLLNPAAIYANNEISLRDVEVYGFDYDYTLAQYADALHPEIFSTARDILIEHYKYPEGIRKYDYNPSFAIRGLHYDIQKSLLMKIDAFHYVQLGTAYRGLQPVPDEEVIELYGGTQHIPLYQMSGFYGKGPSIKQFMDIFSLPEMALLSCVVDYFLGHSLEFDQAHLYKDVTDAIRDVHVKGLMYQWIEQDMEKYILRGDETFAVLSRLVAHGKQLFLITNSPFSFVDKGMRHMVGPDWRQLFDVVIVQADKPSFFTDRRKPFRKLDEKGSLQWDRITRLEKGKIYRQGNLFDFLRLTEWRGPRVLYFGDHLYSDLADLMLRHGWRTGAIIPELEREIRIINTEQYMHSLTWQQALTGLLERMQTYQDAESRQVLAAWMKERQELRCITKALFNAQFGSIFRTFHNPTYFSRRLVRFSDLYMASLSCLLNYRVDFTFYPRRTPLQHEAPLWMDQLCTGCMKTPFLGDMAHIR
The experiment is described as follows: co-IP; anti-GFP beads (GFP-Trap agarose) on lysates of MHCC97H or PLC/RLF/5 cells expressing GFP-tagged NT5DC2, its truncations or a control vector; western blot for EGFR.

Experiment [3] deals with epidermal growth factor receptor (EGFR) (human (endogenous in MHCC97H and PLC/RLF/5)) (UniProt P00533). In words: co-IP; endogenous proteins in PLC/RLF/5 lysate; anti-NT5DC2 or anti-EGFR antibody with protein A beads, IgG as control; western blot.

No constants are given. Whether binding was seen depends on the method and setting. Binding seen in cells or lysates may run through a third protein. Some entries that bind do so weakly or less than the wild type. For part of these data: Tags and fused reporters may be left off the sequences shown.

For the molecule “epidermal growth factor receptor (EGFR) (from UniProt P00533 25-1210)”, the binding entry in experiment [1] and in experiment [2] was “binds” throughout.

B1: endogenous NT5DC2 (protein, UniProt Q9H857 1-520)
chain: MRVESGSAQERGILLESLSTLLEKTTASHEGRAPGNRELTDLLPPEVCSLLNPAAIYANNEISLRDVEVYGFDYDYTLAQYADALHPEIFSTARDILIEHYKYPEGIRKYDYNPSFAIRGLHYDIQKSLLMKIDAFHYVQLGTAYRGLQPVPDEEVIELYGGTQHIPLYQMSGFYGKGPSIKQFMDIFSLPEMALLSCVVDYFLGHSLEFDQAHLYKDVTDAIRDVHVKGLMYQWIEQDMEKYILRGDETFAVLSRLVAHGKQLFLITNSPFSFVDKGMRHMVGPDWRQLFDVVIVQADKPSFFTDRRKPFRKLDEKGSLQWDRITRLEKGKIYRQGNLFDFLRLTEWRGPRVLYFGDHLYSDLADLMLRHGWRTGAIIPELEREIRIINTEQYMHSLTWQQALTGLLERMQTYQDAESRQVLAAWMKERQELRCITKALFNAQFGSIFRTFHNPTYFSRRLVRFSDLYMASLSCLLNYRVDFTFYPRRTPLQHEAPLWMDQLCTGCMKTPFLGDMAHIR
Take B1: in experiment [3], the binding result is “binds”.

Values taken from article PMC7206140.
